The source of these data is PMC13260904.

Protein sequences, listed by entry. Tags and fused reporters are not part of them.
UniProt Q13541: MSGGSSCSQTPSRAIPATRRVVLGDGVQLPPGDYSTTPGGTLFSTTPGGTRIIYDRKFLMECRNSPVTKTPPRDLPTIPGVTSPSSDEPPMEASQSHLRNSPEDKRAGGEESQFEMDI

These are yes or no findings as the source states them, for the method shown. In cells and extracts the contact can be indirect. Some entries that bind do so weakly or less than the wild type. Sequences can lack the tags named with a protein.

The test concerns the target Flag-tagged 4E-BP1 (UniProt Q13541). Description: co-IP; HEK293T co-transfected with HA-SIRT2 and Flag-4E-BP1 or Flag empty vector; lysis in 1% NP40 buffer pH 7.4; Flag beads at 4 °C overnight; washes in 25 mM Tris pH 8.0, 150 mM NaCl, 0.2% NP40; western blot. On the technique in general: Immunoblotting shows a protein as a band on a membrane.

B1: HA-tagged SIRT2 (enzyme, UniProt Q8IXJ6 1-389)
chain: MAEPDPSHPLETQAGKVQEAQDSDSDSEGGAAGGEADMDFLRNLFSQTLSLGSQKERLLDELTLEGVARYMQSERCRRVICLVGAGISTSAGIPDFRSPSTGLYDNLEKYHLPYPEAIFEISYFKKHPEPFFALAKELYPGQFKPTICHYFMRLLKDKGLLLRCYTQNIDTLERIAGLEQEDLVEAHGTFYTSHCVSASCRHEYPLSWMKEKIFSEVTPKCEDCQSLVKPDIVFFGESLPARFFSCMQSDFLKVDLLLVMGTSLQVQPFASLISKAPLSTPRLLINKEKAGQSDPFLGMIMGLGGGMDFDSKKAYRDVAWLGECDQGCLALAELLGWKKELEDLVRREHASIDAQSGAGVPNPSTSASPKKSPPPAKDEARTTEREKPQ
On to B1, for which the binding entry is given as “binds”.
